± gives the uncertainty stated by the source. Many entries were measured with a wide error.
Test: self-splicing fitness, log relative to wild type (ln ratio); higher = more splicing; Tetrahymena group I intron in knt gene, E. coli kanamycin selection, DiMSum; sequences stand for … in CUCUCU…GGAGGGAAAAGUUAUCAGGCAUGCACCUGGUAGCUAGUCUUUAAACCAAUAGAUUGCAUCGGUUUAAAAGGCAAGACCGUCAAAUUGCGGGAAAGGGGUCAACAGCCGUUCAGUACCAAGUCUCAGGGGAAACUUUGAGAUGGCCUUGCAAAGGGUAUGGUAAUAAGCUGACGGACAUGGUCCUAACCACGCAGCCAAGUCCUAAGUCAACAGAUCUUCUGUUGAUAUGGAUGCAGUUCACAGACUAAAUGUCGGUCGGGGAAGAUGUAUUCUUCUCAUAAGAUAUAGUCGGACCUCUCCUUAAUGGGAGCUAGCGGAUGAAGUGAUGCAACACUGGAGCCGCUGGGAACUAAUUUGUAUGCGAAAGUAUAUUGAUUAGUUUUGGAGUACUCGUGGUCG
Procedure, shortened: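 Pooled colonies went to amplicon sequencing on an Illumina HiSeq 2500 after six replicate transformations. The plates were LB agar with 100 μg/mL carbenicillin, 50 μM IPTG and 0.2% rhamnose, with or without 25 μg/mL kanamycin, incubated overnight at 37°C or 30°C. The E. coli BL21(DE3) library had all eight P1ex-region intron nucleotides randomised, the intron placed in the knt kanamycin-resistance gene on pET-22b(+). DiMSum fitness is the error-weighted combination of replicate fold changes, kanamycin against none, normalised to wild type.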

Sequence | self-splicing fitness (ln) (37 °C) | self-splicing fitness (ln) (30 °C)
UUUAAGCAAUAUUACGGACC | -0.778 ± 1.4 | –
CUUAAGCAAUAUUACGGCCU | -3.1 ± 0.44 | -2.74 ± 0.25
CGUGAGCAAUAUUACGACGC | -1.39 ± 1.2 | -2.53 ± 0.84
GGUUAGCAAUAUUACGGACU | – | -3.09 ± 0.54
UUGGAGCAAUAUUACGCUCU | -1.92 ± 0.57 | –
CGAGAGCAAUAUUACGGGCC | -2.13 ± 0.56 | -2.09 ± 1.4
CAGAAGCAAUAUUACGCCAC | – | -2.77 ± 1.1
UGCGAGCAAUAUUACGCAAC | -2.13 ± 0.55 | –
GUGGAGCAAUAUUACGGAAC | – | -4.46 ± 1
UUUCAGCAAUAUUACGACCC | -0.704 ± 0.73 | –
ACCAAGCAAUAUUACGGACC | -0.214 ± 0.12 | -0.368 ± 0.098
UCAAAGCAAUAUUACGGCCU | – | -4.57 ± 0.51
CGGGAGCAAUAUUACGCAAU | -3.36 ± 0.74 | -3.15 ± 0.39
CAGCAGCAAUAUUACGUACG | 0.866 ± 0.11 | -0.121 ± 0.08
GCGGAGCAAUAUUACGUUUC | -2.88 ± 0.54 | –
AAAGAGCAAUAUUACGCUAA | – | -1.74 ± 0.84
AUACAGCAAUAUUACGAGCC | -2.77 ± 0.55 | –
ACGCAGCAAUAUUACGCGUG | -2.07 ± 0.17 | -3.43 ± 0.18
CCAGAGCAAUAUUACGCUGG | -2.98 ± 1.1 | -3.99 ± 0.61
GGAGAGCAAUAUUACGCCAC | – | 0.0882 ± 0.84
GGCAAGCAAUAUUACGAAAG | -2.24 ± 0.56 | -2.97 ± 0.28
UGUUAGCAAUAUUACGGUCC | -1.31 ± 0.63 | –
GUUGAGCAAUAUUACGAAAC | -1.98 ± 0.78 | –
CGCUAGCAAUAUUACGCUCC | -2.54 ± 1.1 | –

Sequence | self-splicing fitness (ln) (37 °C) | self-splicing fitness (ln) (30 °C)
AGUGAGCAAUAUUACGUGAC | -2.39 ± 0.32 | -2.02 ± 0.35
UUAUAGCAAUAUUACGGAUC | -2.45 ± 0.54 | –
CCCUAGCAAUAUUACGGACU | -2 ± 0.32 | -3.48 ± 0.3
UUUUAGCAAUAUUACGCGGU | – | -2.74 ± 0.62
UCUCAGCAAUAUUACGCCUG | – | -3.14 ± 0.56
GACGAGCAAUAUUACGCCGG | -1.14 ± 0.54 | –
CGAGAGCAAUAUUACGGGCU | -2.18 ± 0.28 | -3.67 ± 0.22
GACUAGCAAUAUUACGCGGC | -1.29 ± 0.62 | –
UUCAAGCAAUAUUACGCGUU | -0.189 ± 0.09 | -2.62 ± 0.12
UGCCAGCAAUAUUACGCAAC | – | -4.28 ± 0.73
UCAUAGCAAUAUUACGAAAA | -2.51 ± 0.61 | –
CCAGAGCAAUAUUACGUUGG | -2.57 ± 0.23 | -3.93 ± 0.23
AUAGAGCAAUAUUACGAAGA | -0.693 ± 1.4 | –
GGGGAGCAAUAUUACGGUAC | – | -3.33 ± 0.61
GGGUAGCAAUAUUACGGUCC | -0.66 ± 0.5 | –
GUAUAGCAAUAUUACGUUCC | -0.238 ± 0.62 | –
CCGAAGCAAUAUUACGACAC | -1.09 ± 0.73 | -3.72 ± 1
GUUAAGCAAUAUUACGAGAA | -1.98 ± 0.85 | -1.55 ± 0.71
AUCUAGCAAUAUUACGGUUC | -2.34 ± 0.32 | -2.94 ± 0.32
UUUUAGCAAUAUUACGAUGC | – | -3.53 ± 0.6
GACUAGCAAUAUUACGGAGG | – | -4.39 ± 0.51
AGAGAGCAAUAUUACGUCAA | – | -2.29 ± 0.5
UUGGAGCAAUAUUACGGUGC | -3.52 ± 0.73 | –
AGCAAGCAAUAUUACGGCGA | -0.039 ± 0.11 | -0.386 ± 0.094

Sequence | self-splicing fitness (ln) (37 °C) | self-splicing fitness (ln) (30 °C)
CACGAGCAAUAUUACGCCCC | -1.8 ± 0.81 | -4.32 ± 0.72
CAAGAGCAAUAUUACGUGAC | – | -4.31 ± 0.73
AUGGAGCAAUAUUACGUACC | -1.89 ± 0.81 | –
GGCGAGCAAUAUUACGAAGA | – | -0.86 ± 0.63
GAUGAGCAAUAUUACGUUGU | – | -3.53 ± 0.61
AUGGAGCAAUAUUACGAAAA | – | -2.65 ± 1.1
CCGGAGCAAUAUUACGAAUC | -3.28 ± 0.52 | –
CGACAGCAAUAUUACGCUAC | – | -3.46 ± 0.73
UUCGAGCAAUAUUACGUUCA | -1.15 ± 0.13 | -1.99 ± 0.13
GACCAGCAAUAUUACGGAAG | -0.75 ± 0.088 | -1.42 ± 0.08
UAGUAGCAAUAUUACGGAGC | -2.67 ± 0.62 | –
CGGUAGCAAUAUUACGCACC | – | -2.11 ± 0.69
GGUCAGCAAUAUUACGCGGC | -0.759 ± 0.64 | -3.64 ± 0.54
UGGGAGCAAUAUUACGACGA | – | -3.12 ± 1.1
AUAAAGCAAUAUUACGAGAG | -1.03 ± 0.15 | -2.29 ± 0.18
UCCGAGCAAUAUUACGCGAG | – | -4.06 ± 0.61
CCGUAGCAAUAUUACGGACC | -2.23 ± 1.1 | –
CUGGAGCAAUAUUACGUUCC | -0.171 ± 0.73 | -3.21 ± 0.62
GAUUAGCAAUAUUACGAUGA | 0.00201 ± 0.11 | -1.8 ± 0.13
CAUGAGCAAUAUUACGCAGA | -1.69 ± 0.15 | -4.53 ± 0.32
GGGCAGCAAUAUUACGGGGU | – | -4.01 ± 0.74
UUGAAGCAAUAUUACGAAGU | -1.69 ± 0.21 | -3.34 ± 0.19
GGGCAGCAAUAUUACGAGCU | 0.481 ± 0.13 | -2.69 ± 0.22
CCCUAGCAAUAUUACGGCCU | -3.49 ± 0.52 | –

Sequence | self-splicing fitness (ln) (37 °C) | self-splicing fitness (ln) (30 °C)
AAGGAGCAAUAUUACGUGUC | – | -4.89 ± 0.51
UAUUAGCAAUAUUACGAAAG | -0.714 ± 0.66 | –
AGCCAGCAAUAUUACGUCCC | -0.595 ± 1.4 | –
GGGGAGCAAUAUUACGCUGC | -2.67 ± 1.1 | –
GGGGAGCAAUAUUACGCGCU | -2.63 ± 0.63 | -3.48 ± 1.1
CCAAAGCAAUAUUACGCCCC | – | -3.72 ± 0.6
UAUAAGCAAUAUUACGCACC | -1.42 ± 0.3 | -1.82 ± 0.3
CGGGAGCAAUAUUACGAAAC | -1.79 ± 0.82 | –
GUGGAGCAAUAUUACGGAAG | -4.63 ± 0.51 | -4.51 ± 0.59
CUUUAGCAAUAUUACGCCGG | -1.22 ± 0.19 | -1.74 ± 0.16
GGUGAGCAAUAUUACGACCU | -2.52 ± 0.49 | -2.12 ± 0.26
AGAAAGCAAUAUUACGCCGC | -1.29 ± 0.58 | –
UCAAAGCAAUAUUACGUUCC | -4.15 ± 1 | –
CAGAAGCAAUAUUACGCACA | -0.438 ± 0.087 | -1.56 ± 0.077
GAAGAGCAAUAUUACGAGGC | -1.8 ± 0.41 | -3.29 ± 0.54
CAGAAGCAAUAUUACGCUGC | – | -3.96 ± 0.53
GGGGAGCAAUAUUACGCAGA | – | -3.66 ± 0.52
CUCCAGCAAUAUUACGGAUC | -1.47 ± 0.14 | -1.86 ± 0.099
AGUGAGCAAUAUUACGCCCC | – | -1.96 ± 0.87
UCACAGCAAUAUUACGCAAU | – | -5.19 ± 0.51
UUUCAGCAAUAUUACGCAGC | -2.29 ± 0.78 | -3.04 ± 0.58
GAGGAGCAAUAUUACGGUAC | – | -5.07 ± 0.58
AUGCAGCAAUAUUACGGGUU | -1.29 ± 0.096 | -1.98 ± 0.075
AAGUAGCAAUAUUACGAGGC | -3.27 ± 0.53 | –

27 successive records already listed, quoted:
Sequence | self-splicing fitness (ln) (37 °C) | self-splicing fitness (ln) (30 °C)
GAUUAGCAAUAUUACGAUGA | 0.00201 ± 0.11 | -1.8 ± 0.13
CAUGAGCAAUAUUACGCAGA | -1.69 ± 0.15 | -4.53 ± 0.32
GGGCAGCAAUAUUACGGGGU | – | -4.01 ± 0.74
UUGAAGCAAUAUUACGAAGU | -1.69 ± 0.21 | -3.34 ± 0.19
GGGCAGCAAUAUUACGAGCU | 0.481 ± 0.13 | -2.69 ± 0.22
CCCUAGCAAUAUUACGGCCU | -3.49 ± 0.52 | –
AAGGAGCAAUAUUACGUGUC | – | -4.89 ± 0.51
UAUUAGCAAUAUUACGAAAG | -0.714 ± 0.66 | –
AGCCAGCAAUAUUACGUCCC | -0.595 ± 1.4 | –
GGGGAGCAAUAUUACGCUGC | -2.67 ± 1.1 | –
GGGGAGCAAUAUUACGCGCU | -2.63 ± 0.63 | -3.48 ± 1.1
CCAAAGCAAUAUUACGCCCC | – | -3.72 ± 0.6
UAUAAGCAAUAUUACGCACC | -1.42 ± 0.3 | -1.82 ± 0.3
CGGGAGCAAUAUUACGAAAC | -1.79 ± 0.82 | –
GUGGAGCAAUAUUACGGAAG | -4.63 ± 0.51 | -4.51 ± 0.59
CUUUAGCAAUAUUACGCCGG | -1.22 ± 0.19 | -1.74 ± 0.16
GGUGAGCAAUAUUACGACCU | -2.52 ± 0.49 | -2.12 ± 0.26
AGAAAGCAAUAUUACGCCGC | -1.29 ± 0.58 | –
UCAAAGCAAUAUUACGUUCC | -4.15 ± 1 | –
CAGAAGCAAUAUUACGCACA | -0.438 ± 0.087 | -1.56 ± 0.077
GAAGAGCAAUAUUACGAGGC | -1.8 ± 0.41 | -3.29 ± 0.54
CAGAAGCAAUAUUACGCUGC | – | -3.96 ± 0.53
GGGGAGCAAUAUUACGCAGA | – | -3.66 ± 0.52
CUCCAGCAAUAUUACGGAUC | -1.47 ± 0.14 | -1.86 ± 0.099
AGUGAGCAAUAUUACGCCCC | – | -1.96 ± 0.87
UCACAGCAAUAUUACGCAAU | – | -5.19 ± 0.51
UUUCAGCAAUAUUACGCAGC | -2.29 ± 0.78 | -3.04 ± 0.58

Following part.

Sequence | self-splicing fitness (ln) (37 °C) | self-splicing fitness (ln) (30 °C)
ACGUAGCAAUAUUACGAAGC | – | -4.39 ± 0.52
AGUAAGCAAUAUUACGCUGC | -3.73 ± 0.73 | –
GUCGAGCAAUAUUACGGGAU | -0.94 ± 0.66 | -4.74 ± 1
AUAUAGCAAUAUUACGAGGA | – | -3.96 ± 1
CUCGAGCAAUAUUACGAACC | -2.41 ± 0.79 | -2.4 ± 0.57
UUAGAGCAAUAUUACGCCUC | -2.29 ± 1.1 | -3.23 ± 0.78
GGCGAGCAAUAUUACGGCCU | -1.65 ± 0.55 | –
AAUUAGCAAUAUUACGGAAA | -1.72 ± 0.49 | -1.83 ± 0.29
CAUAAGCAAUAUUACGAUCC | -2.71 ± 0.32 | -3.25 ± 0.23
AGUGAGCAAUAUUACGUCUC | – | -3.59 ± 0.52
CUUAAGCAAUAUUACGGGCC | -2.57 ± 0.77 | -3.29 ± 0.76
UUUGAGCAAUAUUACGGACA | – | -3.12 ± 0.76
CGGGAGCAAUAUUACGACGA | -2.57 ± 0.51 | –
AACAAGCAAUAUUACGCUGG | -1.04 ± 0.1 | -2.25 ± 0.081
GUGGAGCAAUAUUACGGGCG | -2.64 ± 1.1 | -4.36 ± 1
UACCAGCAAUAUUACGAAGG | -0.865 ± 0.12 | -2.22 ± 0.11
UAUUAGCAAUAUUACGCCGC | 0.608 ± 1.1 | -1.82 ± 0.73
UUUGAGCAAUAUUACGAUCG | -1.81 ± 0.29 | -2.23 ± 0.23
GGGGAGCAAUAUUACGGAAG | -1.94 ± 0.79 | –
CUAGAGCAAUAUUACGAACC | -2.59 ± 0.74 | -1.8 ± 0.47
UUAGAGCAAUAUUACGGAUA | -2.65 ± 0.63 | –
GCAUAGCAAUAUUACGCAGC | – | -2.94 ± 0.54

Reference: the supplement of paper PMC7877785
